Measured values taken from PubChem BioAssay AID540275 (National Center for Advancing Translational Sciences (NCATS), 2011).
The campaign covered roughly 320,000 compounds. About 620 (0.19%) were called active. Inconclusive results, whose numbers are uncertain, are shown with a selection of clear calls. Rule as the data show it: active = activation above about 80%; inconclusive = between about 30% and that limit; inactive = weaker than that.

Amino acid sequences for entries named in this document (tags omitted).
UniProt Q8NER1, whole entry, looked up: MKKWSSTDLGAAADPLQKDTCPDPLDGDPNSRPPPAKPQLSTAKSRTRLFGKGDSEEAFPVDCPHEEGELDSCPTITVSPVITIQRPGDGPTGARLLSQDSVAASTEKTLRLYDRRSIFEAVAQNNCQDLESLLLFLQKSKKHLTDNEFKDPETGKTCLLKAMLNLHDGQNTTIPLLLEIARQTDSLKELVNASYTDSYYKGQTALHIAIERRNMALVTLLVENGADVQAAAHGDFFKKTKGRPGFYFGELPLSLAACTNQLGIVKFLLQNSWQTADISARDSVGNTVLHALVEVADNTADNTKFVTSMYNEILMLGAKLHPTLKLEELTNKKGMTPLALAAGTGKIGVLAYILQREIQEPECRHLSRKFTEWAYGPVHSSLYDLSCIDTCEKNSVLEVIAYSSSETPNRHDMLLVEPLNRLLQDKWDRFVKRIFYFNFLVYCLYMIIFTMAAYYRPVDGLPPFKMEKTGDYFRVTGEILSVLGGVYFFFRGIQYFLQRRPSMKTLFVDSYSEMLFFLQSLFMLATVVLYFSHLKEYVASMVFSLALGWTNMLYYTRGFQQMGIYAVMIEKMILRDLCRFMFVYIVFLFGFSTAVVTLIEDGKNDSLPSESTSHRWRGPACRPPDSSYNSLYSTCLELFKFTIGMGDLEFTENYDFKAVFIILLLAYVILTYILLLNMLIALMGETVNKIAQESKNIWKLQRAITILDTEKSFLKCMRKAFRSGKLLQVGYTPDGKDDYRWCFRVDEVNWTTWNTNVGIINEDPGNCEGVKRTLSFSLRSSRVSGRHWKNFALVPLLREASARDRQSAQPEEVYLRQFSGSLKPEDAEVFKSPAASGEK

These compounds were tested against Transient receptor potential cation channel subfamily V member 1 (Homo sapiens) (UniProt Q8NER1) (assay: HTS Assay for Compounds that Act as Agonists of the Vanilloid Receptor 1). Conditions: TRPV1-expressing cells, Fluo-8 calcium influx, agonist mode; at 8.33 µM, active compounds read high.
In short: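 TRPV1-expressing cells were cultured overnight at 35.5C and loaded with Fluo-8 calcium dye for 40 to 90 min at room temperature. After a 10 s baseline, compound was added and calcium influx was read kinetically for 3 min (ex 480/em 520 nm).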
Also: 0% is about no effect.

| Structure (SMILES) | activation |
| --- | --- |
| Cc1ccc(-c2[nH]ncc2/C=C(\C#N)C(=O)NC2CCCCC2)cc1 | inconclusive: 50.7% |
| COc1ccc(/C=N/NC(=O)c2ccc(O)cc2O)cc1CSc1ccccn1 | inconclusive: 72.1% |
| NS(=O)(=O)c1ccc(CCNC(=O)CSc2nc3ccsc3c(=O)n2CCCCCC(=O)O)cc1 | inactive: -0.475% |
| Cc1cc(C)c2cc(C(=O)Nc3ccccc3)[nH]c2c1 | inconclusive: 65.3% |
| COc1cccc(CC(=O)OCC(=O)NC(C)c2ccc(F)cc2)c1 (stereo not drawn) | inconclusive: 34.5% |
| O=C(Nc1cccc(S(=O)(=O)N2CCOCC2)c1)c1ccc2ccccc2n1 | inconclusive: 57.5% |
| Cc1c(C(=O)OCC(=O)Nc2ccc(S(N)(=O)=O)cc2)oc2c1ccc1ccccc12 | inconclusive: 42.5% |
| CCCn1c(=N)c(S(=O)(=O)c2ccccc2)cc2c(=O)n3ccccc3nc21 | inconclusive: 42% |
| O=C(NCC1CCCO1)c1ccc2c(c1)N(Cc1ccc(F)cc1)CCS2 (stereo not drawn) | inconclusive: 69.1% |
| CCOc1ccc(C(=O)NC(=S)Nc2ccc(N3CCC(C)CC3)cc2)cc1[N+](=O)[O-] | inactive: 0.0687% |
| Cn1ncc2c(Nc3ccccc3Cl)nc(Nc3ccccc3Cl)nc21 | inconclusive: 33.1% |
| COc1ccc(CNc2nc3ccccc3n2Cc2ccc(Cl)cc2)cc1OC | inactive: -1.99% |
| Cc1ccc([C@@H]2C[C@H]3CN(Cc4cccc(Cl)c4)C(=O)[C@]34CCCN24)o1 | inactive: -1.33% |
| CC(COc1ccccc1)N1CCC(CO)(Cc2ccccc2)CC1 (stereo not drawn) | inactive: 1.16% |
| CSC1=NCCN1S(=O)(=O)c1ccc(F)cc1 | inconclusive: 49.8% |
| O=C(NCc1ccc(F)cc1)c1ccc(N2CCc3ccccc32)c([N+](=O)[O-])c1 | inconclusive: 48.3% |
| Cc1cc(OCc2cc(C(=O)N(C)C3CCOC3)no2)cc(C)c1Cl (stereo not drawn) | active: 82.5% |
| CCCSc1ccc(-c2nn(-c3ccccc3)cc2/C=C(/C#N)C(=O)N2CCOCC2)cc1 | active: 101% |
| CSc1cccc(NC(=O)/C=C/c2ccc(Cl)cc2)c1 | inconclusive: 63.9% |
| CCOC(=O)/C(C#N)=C/c1cc2ccc(C)cc2nc1Cl | inconclusive: 33.6% |
| O=C(Nc1ccncc1)c1ccc(Cl)c(Cl)c1 | inconclusive: 66.2% |
| CCCCCCSc1ccc(-c2nc3ccc(C)cn3c2NCc2ccccc2)cc1 | inconclusive: 62.9% |

| Structure (SMILES) | activation |
| --- | --- |
| COc1ccc(CN2CCN(C(=O)c3cc(C4CC4)nn3-c3ccccc3)CC2)cc1F | inconclusive: 68.5% |
| c1ccc(-n2cccc2CNC2CCCCC2)cc1 | inactive: 0.939% |
| O=C(Nc1ccc(S(=O)(=O)N2CCCC2)cc1)c1cccs1 | inconclusive: 49.6% |
| O=C(NC1CCCCCC1)C(=S)NCc1ccccc1 | inconclusive: 32.1% |
| CCCC[n+]1ccn(C2=C([O-])c3ccccc3C(=O)/C2=N\S(=O)(=O)c2ccc(Br)cc2)c1 | inactive: 12.7% |
| CC(Sc1nnc(-c2ccco2)o1)C(=O)NCCC1=CCCCC1 (stereo not drawn) | inconclusive: 41.5% |
| CN(C)c1ccc2c(c1)Sc1cc(N(C)C)ccc1N2C(=O)c1ccccc1 | inconclusive: 62.6% |
| O=C(NCc1ccncc1)c1nc(-c2ccc(C(F)(F)F)cc2)no1 | inconclusive: 41.3% |
| O=C(Nc1cccc([N+](=O)[O-])c1)C1C2CCCCC21 (stereo not drawn) | inconclusive: 54% |
| C[C@@]12C(=O)N(CCc3c[nH]c4ccccc34)CC(=O)N1[C@H]1c3ccccc3OC[C@@H]1[C@@H]2c1ccccc1 | inconclusive: 42% |
| O=C(C1CCN(Cc2ccc(Cl)cc2)CC1)N1CCN(Cc2ccc3c(c2)OCO3)CC1 | inconclusive: 33% |
| COc1ccccc1C1CCN(C(=O)c2ccc(C(C)(C)C)cc2)CC1 | inconclusive: 34.5% |
| O=S(=O)(Nc1cccnc1)c1ccc(Cl)c(C(F)(F)F)c1 | inactive: 0.845% |
| S=C(NCc1ccco1)Nc1ccc(Br)cc1Cl | inconclusive: 47.8% |
| CCOC(=O)/C(C#N)=C/c1cn(CCOc2ccccc2)c2ccccc12 | inconclusive: 32.4% |
| Cc1ccccc1C(C(=O)NC1CCCC1)N(C(=O)Cc1cccs1)c1ccc2c(c1)OCCO2 (stereo not drawn) | inconclusive: 44.1% |
| O=C(COC(=O)CC(c1ccccc1)c1ccccc1)NCc1ccccc1 | inconclusive: 31.5% |
| Cc1ccc(Cl)cc1NC(=O)CC(O)(C(F)(F)F)C(F)(F)F | inactive: 7.14% |
| COc1ccc(-c2nnc(SCC(=O)NCc3cccs3)n2CC(C)C)cc1 | inactive: 3.86% |
| CC1CC(C)CN(S(=O)(=O)c2ccc(NC(=O)C3CC(=O)N(Cc4ccccc4)C3)cc2)C1 (stereo not drawn) | inconclusive: 72.2% |
| C=CCn1c(COc2ccc(Cl)cc2)nnc1SCc1ccc(C#N)cc1 | inconclusive: 41.7% |
| COc1ccc(CCN2C(=O)C3C4C=CC(C5CC45)C3C2=O)cc1OC (stereo not drawn) | inactive: 1.43% |

Entries from the list above containing an aryl thioether with sulfur outside any ring (8):

| Structure (SMILES) | activation |
| --- | --- |
| COc1ccc(/C=N/NC(=O)c2ccc(O)cc2O)cc1CSc1ccccn1 | inconclusive: 72.1% |
| NS(=O)(=O)c1ccc(CCNC(=O)CSc2nc3ccsc3c(=O)n2CCCCCC(=O)O)cc1 | inactive: -0.475% |
| CCCSc1ccc(-c2nn(-c3ccccc3)cc2/C=C(/C#N)C(=O)N2CCOCC2)cc1 | active: 101% |
| CSc1cccc(NC(=O)/C=C/c2ccc(Cl)cc2)c1 | inconclusive: 63.9% |
| CCCCCCSc1ccc(-c2nc3ccc(C)cn3c2NCc2ccccc2)cc1 | inconclusive: 62.9% |
| CC(Sc1nnc(-c2ccco2)o1)C(=O)NCCC1=CCCCC1 (stereo not drawn) | inconclusive: 41.5% |
| COc1ccc(-c2nnc(SCC(=O)NCc3cccs3)n2CC(C)C)cc1 | inactive: 3.86% |
| C=CCn1c(COc2ccc(Cl)cc2)nnc1SCc1ccc(C#N)cc1 | inconclusive: 41.7% |

2 entries picked at random from those above, as already listed:

| Structure (SMILES) | activation |
| --- | --- |
| O=C(C1CCN(Cc2ccc(Cl)cc2)CC1)N1CCN(Cc2ccc3c(c2)OCO3)CC1 | inconclusive: 33% |
| Cc1ccc(Cl)cc1NC(=O)CC(O)(C(F)(F)F)C(F)(F)F | inactive: 7.14% |

Further structures

| Structure (SMILES) | activation |
| --- | --- |
| O=C(Nc1cccc(S(=O)(=O)N2CCOCC2)c1)c1ccc(Cl)c([N+](=O)[O-])c1 | inconclusive: 69% |
| CCOc1cc(/C=C2/C(=N)N3C=CSC3=NC2=O)ccc1OCCCOc1ccccc1C | inactive: 1.9% |
| CCn1nc(CC(C)C)cc1C(=O)N1CCCC(Nc2ccc(F)cc2)C1 (stereo not drawn) | inconclusive: 53.3% |
| CCc1ccc(NC(=O)Nc2cccs2)cc1 | inconclusive: 36% |
| N#C/C(=C(/O)COc1cccc2ccccc12)c1nc2ccccc2[nH]1 | inconclusive: 57.5% |
| COc1ccc(C)cc1NC(=O)C1CCCN(S(=O)(=O)c2ccc3[nH]c(=O)ccc3c2)C1 (stereo not drawn) | inconclusive: 79.8% |
| CC(OC(=O)CCCN=C1NS(=O)(=O)c2ccccc21)C(=O)c1ccccc1 (stereo not drawn) | inconclusive: 40.4% |
| CCN(CC)S(=O)(=O)c1ccc(C)c(NC(=O)CSc2nc3ccccc3[nH]2)c1 | inconclusive: 66.3% |
| CN(c1ccccc1)S(=O)(=O)c1ccc(NC(=O)c2ccco2)cc1 | inconclusive: 38.5% |
| COC(=O)Cc1ccc(NC(=S)NCc2cccc(OC)c2)cc1 | inconclusive: 30.8% |
| O=C(Nc1ccc(N2CCOCC2)cc1)c1cccc(S(=O)(=O)N2CCCC2)c1 | inconclusive: 33.1% |
| CC(NC(=O)Nc1ccc(Cl)c(Cl)c1)C(c1ccccc1)N1CCOCC1 (stereo not drawn) | inconclusive: 38.8% |
| Cc1ccc(S(=O)(=O)N2CCC(=O)N(C(COCc3cccc(C(F)(F)F)c3)C(C)C)CC2)cc1 (stereo not drawn) | inconclusive: 44.8% |
| CCCCCC(=O)Nc1ncc2c(n1)CC(c1cccs1)CC2=O (stereo not drawn) | inconclusive: 46.1% |
| O=C(Nc1ccccc1)Nc1cc(Cl)cc(Cl)c1 | inconclusive: 40.5% |
| COCCn1c(-c2ccc(OC)cc2)c(-c2ccc(OC)cc2)oc1=O | inconclusive: 33.5% |
| CC1CCN(CC(=O)Nc2ccc(N3CCCCCC3)cc2)CC1 | inconclusive: 33.8% |
| Cc1ccc(OCC(=O)N/N=C/c2cccnc2)cc1C | inconclusive: 45% |
| CCOc1nsc(OCC)n1 | inactive: -11.1% |
| CC(C)Oc1ccc(C(CCN)C2CCCCC2)cc1 (stereo not drawn) | inactive: 4.75% |
| Oc1c(N=Nc2ccccn2)ccc2ccccc12 | inactive: 8.52% |
| Cc1nnc(NC(=O)CCS(=O)(=O)c2ccccc2)s1 | inactive: -5.48% |

| Structure (SMILES) | activation |
| --- | --- |
| CCCCSCCCNC(=O)Nc1ccc(CC)cc1 | inconclusive: 52.8% |
| O=C(NCc1ccc2c(c1)OCO2)c1cc(COc2c(F)cccc2F)on1 | inconclusive: 36.1% |
| C=CCOC(=O)C1=C[C@@H](c2ccc(C(F)(F)F)cc2)[C@H](CCCO)[C@@H](OCC)O1 | inconclusive: 49% |
| CC(=O)Nc1ccc(C(=O)NNC(=O)c2cc([N+](=O)[O-])cc([N+](=O)[O-])c2)cc1 | inactive: 0.713% |
| O=C(/C=C/Nc1ccc(Oc2ccccc2Cl)cc1)c1ccco1 | inconclusive: 54.2% |
| CC(C)/C=C/CN1CCN(CCCc2ccccc2)C(CCO)C1 (stereo not drawn) | inactive: 3.72% |
| COc1ccc(C(NCC(=O)NC(C)c2ccc(Cl)cc2)c2ccccc2)cc1 (stereo not drawn) | inconclusive: 42.7% |
| O=[N+]([O-])c1ccc(N2CCN(Cc3cccc([N+](=O)[O-])c3)CC2)cc1 | inactive: 3.16% |
| COc1ccccc1NC(=O)N1CCN(c2ccccn2)CC1 | inactive: 13.4% |
| NC(=O)NC(=O)COC(=O)CCCSc1nc2ccccc2s1 | inconclusive: 50.1% |
| Cc1cccc(N2C(=O)c3cccc4c(N)ccc(c34)C2=O)c1 | active: 148% |
| Cc1ccc(NC(=O)c2sc3ncnc(N4CCN(c5ccccn5)CC4)c3c2C)c(C)c1 | inactive: 1.77% |
| C[C@@H](NC(=O)c1nc[nH]c1C(=O)N[C@@H](Cc1ccccc1)C(=O)OC(C)(C)C)c1ccccc1 | inactive: 3.5% |
| CCOc1ccc(N(C)S(=O)(=O)c2cc(-c3cc(C)no3)ccc2CC)cc1 | inconclusive: 69.9% |
| O=C(Nc1ccc(Cl)c([N+](=O)[O-])c1)c1ccc2c(c1)OCCO2 | inconclusive: 38.5% |
| COc1ccc(CNC(=S)Nc2ccccc2)cc1 | inconclusive: 57.4% |
| CC(Oc1ccccc1)C(=O)Nc1ccc(S(=O)(=O)N2CCOCC2)cc1 (stereo not drawn) | inconclusive: 32.5% |
| Cc1cc(C(=O)CCC(=O)N2CCN(c3ccccc3)CC2)c(C)s1 | inconclusive: 33.5% |
| CC(OC(=O)c1cc2ccccc2cc1O)C(=O)Nc1ccc(S(N)(=O)=O)cc1 (stereo not drawn) | inconclusive: 34.1% |
| O=C(NCc1ccc(Cl)cc1)c1ccc(Br)o1 | inconclusive: 34.8% |
| C(=N\Nc1nc(-c2ccccc2)cs1)/c1cccnc1 | inconclusive: 54.8% |
| O=C(/C=C/c1ccco1)N1CCN(c2ccc(F)cc2)CC1 | inconclusive: 55.8% |
